In assay [1] the target is GST-CCA1 (Arabidopsis thaliana) (UniProt P92973). Briefly: GST pull-down of 35S-labeled protein on glutathione-agarose beads, SDS-PAGE autoradiography.
The target of assay [2] is T1, GST-LHY (Arabidopsis thaliana) (UniProt Q6R0H1).
T1 sequence (looked up): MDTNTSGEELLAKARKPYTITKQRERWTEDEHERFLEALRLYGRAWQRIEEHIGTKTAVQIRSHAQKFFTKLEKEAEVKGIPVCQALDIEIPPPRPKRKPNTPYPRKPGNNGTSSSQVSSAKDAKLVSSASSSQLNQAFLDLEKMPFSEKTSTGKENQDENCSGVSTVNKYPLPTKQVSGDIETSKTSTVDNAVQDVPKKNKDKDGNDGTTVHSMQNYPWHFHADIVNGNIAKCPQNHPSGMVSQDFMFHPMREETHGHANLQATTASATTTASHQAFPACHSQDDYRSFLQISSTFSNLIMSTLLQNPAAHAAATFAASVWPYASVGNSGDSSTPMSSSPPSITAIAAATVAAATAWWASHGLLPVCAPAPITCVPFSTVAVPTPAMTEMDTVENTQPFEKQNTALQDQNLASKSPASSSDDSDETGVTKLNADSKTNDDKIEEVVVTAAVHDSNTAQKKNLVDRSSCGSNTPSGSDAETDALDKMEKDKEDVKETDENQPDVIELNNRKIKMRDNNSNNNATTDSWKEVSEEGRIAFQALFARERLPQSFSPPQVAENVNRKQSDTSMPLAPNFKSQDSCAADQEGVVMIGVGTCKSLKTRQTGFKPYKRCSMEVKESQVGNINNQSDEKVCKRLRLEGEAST
The description is as above.

Amino acid sequences for entries named in this document (tags omitted). A change or cut given only in a name is not applied to a line headed by its entry.
UniProt P92973: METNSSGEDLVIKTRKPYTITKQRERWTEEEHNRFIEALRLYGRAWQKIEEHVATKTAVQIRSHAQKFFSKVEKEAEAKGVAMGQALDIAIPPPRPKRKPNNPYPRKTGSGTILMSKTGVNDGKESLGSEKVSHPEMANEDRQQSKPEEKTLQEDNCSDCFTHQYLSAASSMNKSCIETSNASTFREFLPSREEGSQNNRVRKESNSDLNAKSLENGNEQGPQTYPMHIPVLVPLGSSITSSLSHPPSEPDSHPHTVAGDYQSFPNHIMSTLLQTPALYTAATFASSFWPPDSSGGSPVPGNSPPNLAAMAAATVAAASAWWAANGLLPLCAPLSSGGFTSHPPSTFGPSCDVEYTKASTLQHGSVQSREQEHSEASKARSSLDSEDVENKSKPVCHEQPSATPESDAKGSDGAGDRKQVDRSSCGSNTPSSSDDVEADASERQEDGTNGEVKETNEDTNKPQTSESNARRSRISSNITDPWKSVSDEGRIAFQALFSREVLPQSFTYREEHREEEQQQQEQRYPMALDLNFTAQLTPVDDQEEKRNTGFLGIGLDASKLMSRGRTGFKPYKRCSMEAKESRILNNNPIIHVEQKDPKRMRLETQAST
UniProt P04386: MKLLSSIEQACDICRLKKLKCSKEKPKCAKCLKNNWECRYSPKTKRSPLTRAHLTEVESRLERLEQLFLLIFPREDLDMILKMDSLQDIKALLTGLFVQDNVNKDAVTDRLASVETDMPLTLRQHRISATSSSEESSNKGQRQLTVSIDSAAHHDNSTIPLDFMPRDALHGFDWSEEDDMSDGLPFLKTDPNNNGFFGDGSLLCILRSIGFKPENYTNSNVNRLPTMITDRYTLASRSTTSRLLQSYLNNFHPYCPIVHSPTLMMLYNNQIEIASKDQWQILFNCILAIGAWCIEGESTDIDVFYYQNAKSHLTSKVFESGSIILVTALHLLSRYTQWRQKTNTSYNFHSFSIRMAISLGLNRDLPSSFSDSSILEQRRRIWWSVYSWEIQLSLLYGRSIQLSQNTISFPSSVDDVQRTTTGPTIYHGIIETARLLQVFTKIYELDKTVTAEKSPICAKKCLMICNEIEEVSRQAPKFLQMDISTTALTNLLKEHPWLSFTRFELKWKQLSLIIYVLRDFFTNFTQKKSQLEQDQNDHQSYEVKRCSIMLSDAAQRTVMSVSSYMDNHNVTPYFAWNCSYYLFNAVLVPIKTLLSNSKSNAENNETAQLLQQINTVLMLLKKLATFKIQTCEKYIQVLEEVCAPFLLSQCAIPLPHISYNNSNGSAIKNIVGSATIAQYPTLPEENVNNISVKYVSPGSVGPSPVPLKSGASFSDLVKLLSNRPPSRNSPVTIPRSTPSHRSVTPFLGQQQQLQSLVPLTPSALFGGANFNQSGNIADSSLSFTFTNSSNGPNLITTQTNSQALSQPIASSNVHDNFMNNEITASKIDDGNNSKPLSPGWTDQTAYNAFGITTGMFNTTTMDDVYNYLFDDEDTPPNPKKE

In assay [3] the target is T1, GST-LHY (Arabidopsis thaliana). Briefly: GST pull-down of 35S-labeled CKB3 on glutathione-agarose beads, 12.5% SDS-PAGE.
Assay [4] deals with T2, GAL4-DB-CCA1 (entire coding region for CCA1 fused to the GAL4 DNA-binding domain in pAS2) (Arabidopsis thaliana) (UniProt P04386+P92973). The experiment in a line: yeast two-hybrid, HIS3 growth and β-galactosidase filter assay.
The target of assay [5] is T2, GAL4-DB-CCA1 (entire coding region for CCA1 fused to the GAL4 DNA-binding domain in pAS2) (Arabidopsis thaliana). Briefly: yeast two-hybrid screen, HIS3 and lacZ reporters.

These are yes or no findings as the source states them, for the method shown. For part of these data: In cells and extracts the contact can be indirect. Some entries that bind do so weakly or less than the wild type. For part of these data: Where a sequence is shown, tags or fusion partners need not be part of it.

B1: 35S-labeled CKB3 (Arabidopsis protein kinase CK2 β-subunit CKB3), synthesized by coupled transcription-translation in wheat germ extract (protein)
chain: MYKERSGGGGGGSSRSEILGGAIDRKRINDALNKKLEKSSTSTTTSRVFSSKDKDPFSFTSTKTQLPDVESETDSEGSDVSGSEGDDTSWISWFCNLRGNDFFCEVDEDYIQDDFNLCGLSGQVPYYDYALDLILDVDASNSEMFTDEQHEMVESAAEMLYGLIHVRYILTTKGMAAMTEKYKNCDFGRCPRVFCCGQSCLPVGQSDIPRSSTVKIYCPKCEDISYPRSKFQGNIDGAYFGTTFPHLFLMTYGNLKPQKPTQSYVPKIFGFKVHKP
modifications: [35S]methionine label
As for B1, the binding result in assay [1], in assay [2] and in assay [3] was “binds” each time.

B2: GAL4-AD-CKB3 (full-length CKB3 fused to the GAL4 transactivation domain) (protein, not shown: large carriers)
chain: MYKERSGGGGGGSSRSEILGGAIDRKRINDALNKKLEKSSTSTTTSRVFSSKDKDPFSFTSTKTQLPDVESETDSEGSDVSGSEGDDTSWISWFCNLRGNDFFCEVDEDYIQDDFNLCGLSGQVPYYDYALDLILDVDASNSEMFTDEQHEMVESAAEMLYGLIHVRYILTTKGMAAMTEKYKNCDFGRCPRVFCCGQSCLPVGQSDIPRSSTVKIYCPKCEDISYPRSKFQGNIDGAYFGTTFPHLFLMTYGNLKPQKPTQSYVPKIFGFKVHKP
With B2, the binding result in assay [4] is listed as “binds”.

B3: CKA2 (α-subunit of Arabidopsis protein kinase CK2) (enzyme, Arabidopsis thaliana, UniProt Q08466-2 1-333, looked up)
chain: MSKARVYTDVNVIRPKDYWDYESLNVQWGEQDDYEVVRKVGRGKYSEVFEGINMNNNEKCIIKILKPVKKKKIRREIKILQNLCGGPNIVKLLDVVRDQHSKTPSLIFEYVNSTDFKVLYPTLTDYDIRYYIYELLKALDFCHSQGIMHRDVKPHNVMIDHELRKLRLIDWGLAEFYHPGKEYNVRVASRYFKGPELLVDLQDYDYSLDMWSLGCMFAGMIFRKEPFFYGHDNQDQLVKIAKVLGTDELNAYLNKYQLELDTQLEALVGRHSRKPWSKFINADNRHLVSPEAIDYLDKLLRYDHQDRLTAKEAMAHPYFAQVRAAESSRMRTQ
As for B3, the binding result in assay [1] was “binds”.

B4: GAL4-AD fusion of the clone 106 product (214 amino acid fragment of CKB3) (protein, not shown: large carriers)
chain: KTQLPDVESETDSEGSDVSGSEGDDTSWISWFCNLRGNDFFCEVDEDYIQDDFNLCGLSGQVPYYDYALDLILDVDASNSEMFTDEQHEMVESAAEMLYGLIHVRYILTTKGMAAMTEKYKNCDFGRCPRVFCCGQSCLPVGQSDIPRSSTVKIYCPKCEDISYPRSKFQGNIDGAYFGTTFPHLFLMTYGNLKPQKPTQSYVPKIFGFKVHKP
In the case of B4, the binding entry in assay [5] was “binds”.

B5: 35S-labeled CKB2 (Arabidopsis CK2 β-subunit CKB2), in vitro translated (protein, Arabidopsis thaliana, UniProt P40229 1-282, looked up)
chain: MYRERGMVGSKSEVVDRKRINEIHDNRPSHSMSQPVNGKGKVTSTSVLMGKQQLHDKESSRSGSISKTNISDAVDISDTDSEESEVSGSDGEDTSWISWFCNLRGNEFFCEVDDDYIQDDFNLCGLSHQVPYYDYALDLILDVESSHGEMFTEEQNELIESAAEMLYGMIHARFILTSKGLASMLDKYKNYDFGRCPRVYCCGQPCLPVGQSDIPRASTVKIYCPKCEDVYYPRSKYQGNIDGAYFGTTFPHLFLMTYGHLKPQKASQSYTQRVFGFKLHKP
modifications: [35S]methionine label
Take B5: in assay [1], the binding result is “binds”.

B6: GAL4-AD-CKB2 (protein, Arabidopsis thaliana, UniProt P40229 1-282, looked up, not shown: large carriers)
chain: MYRERGMVGSKSEVVDRKRINEIHDNRPSHSMSQPVNGKGKVTSTSVLMGKQQLHDKESSRSGSISKTNISDAVDISDTDSEESEVSGSDGEDTSWISWFCNLRGNEFFCEVDDDYIQDDFNLCGLSHQVPYYDYALDLILDVESSHGEMFTEEQNELIESAAEMLYGMIHARFILTSKGLASMLDKYKNYDFGRCPRVYCCGQPCLPVGQSDIPRASTVKIYCPKCEDVYYPRSKYQGNIDGAYFGTTFPHLFLMTYGHLKPQKASQSYTQRVFGFKLHKP
As to B6, the binding entry in assay [4] is “binds”.

B7: 35S-labeled CKB1 (Arabidopsis CK2 β-subunit CKB1), in vitro translated (protein, Arabidopsis thaliana, UniProt P40228 1-287, looked up)
chain: MYRDRGTVNSRPEVVDRKRINDALERPSPSTSRQVNGKGKGTVTAATTTANLIGKQQSNNINHRDSRSASLSKNNTVSDDESDTDSEESDVSGSDGEDTSWISWFCNLRGNEFFCEVDDDYIQDDFNLCGLSSLVPYYEYALDLILDVESSQGEMFTEEQNELIESAAEMLYGLIHARYILTSKGLAAMLDKYKNYDFGRCPRVYCCGQPCLPVGQSDLPRSSTVKIYCPKCEDIYYPRSKYQGNIDGAYFGTTFPHLFLMTYGHLKPAKATQNYVQRVFGFKLHKP
modifications: [35S]methionine label
On to B7, for which the binding entry in assay [1] and in assay [2] was “binds” each time.

B8: GAL4-AD-CKB1 (protein, Arabidopsis thaliana, UniProt P40228 1-287, looked up, not shown: large carriers)
chain: MYRDRGTVNSRPEVVDRKRINDALERPSPSTSRQVNGKGKGTVTAATTTANLIGKQQSNNINHRDSRSASLSKNNTVSDDESDTDSEESDVSGSDGEDTSWISWFCNLRGNEFFCEVDDDYIQDDFNLCGLSSLVPYYEYALDLILDVESSQGEMFTEEQNELIESAAEMLYGLIHARYILTSKGLAAMLDKYKNYDFGRCPRVYCCGQPCLPVGQSDLPRSSTVKIYCPKCEDIYYPRSKYQGNIDGAYFGTTFPHLFLMTYGHLKPAKATQNYVQRVFGFKLHKP
For B8, in assay [4], the binding result is reported as “binds”.

B9: CKA1 (α-subunit of Arabidopsis protein kinase CK2) (enzyme, Arabidopsis thaliana, UniProt Q08467-3 1-333, looked up)
chain: MSKARVYTEVNVIRPKDYWDYESLIVQWGEQDDYEVVRKVGRGKYSEVFEGINVNSKEKCIIKILKPVKKKKIRREIKILQNLCGGPNIVKLLDVVRDQHSKTPSLIFEYVNSTDFKVLYPTLTDYDIRYYIYELLKALDFCHSQGIMHRDVKPHNVMIDHELRKLRLIDWGLAEFYHPGKEYNVRVASRYFKGPELLVDLQDYDYSLDMWSLGCMFAGMIFRKEPFFYGHDNQDQLVKIAKVLGTDELNAYLNKYQLELDPQLEALVGRHSRKPWSKFINADNQHLVSPEAIDFLDKLLRYDHQDRLTAKEAMAHAYFAQVRAAETSRMRSQ
With B9, the binding result in assay [1] is “binds”.

The record behind these values is patent US6727407.
